# Screening data

From PubChem BioAssay record AID1159506 (NCATS, 2015).

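Genome-wide siRNA knockdown in TC32 Ewing sarcoma cells, comparing luciferase light from an NR0B1-promoter reporter with a CMV-promoter reporter 48 hours after transfection. Each siRNA was applied at 20 nM. A z-score of the log NR0B1-over-CMV signal, less the median of siRNAs with the same seed; more negative means a stronger specific loss of the NR0B1 reporter.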

This is part of the screen; most of the strongest results are not listed here. Sequences are the guide (antisense) strand, without overhang.

Sequence,target gene,seed-corrected z-score
UGUACUCUAAAUGAAGCUG,CSNK1G1,-1.338
AAUAUAUAAGGCAUGAUUC,NCOR1P2,0.6893
AAUACGAUAUUGUUCGUUU,DEFB135,-0.2519
UGACCUUAAUAGUUGAGGC,MON2,-0.2366
UCGUAGAUCAGCUUGAUUC,SLC43A1,0.2022
UUUAUAAGACAUGUCAUGG,PRR3,0.0264
UCUCGGGAAACAGAUCUGG,MRPL23,0.04929
UCAUAGGCAAGGGAACAGC,PHYHIPL,1.095
UAAUUCGAAGAGACUGUCC,SASS6,0.09868
UACUGUAUCACGUUGCCUG,MCTP1,0.3767
UAUAUUGAUACACCUCUCG,LIN7A,0.2439
AAAGAAGCAGUAACAACAG,SNRPN,1.102
AGAUUAGUCACUCCAUUGC,RFX7,0.9637
AACAUGACGCGGAAGGUGC,BTBD2,-1.677
UUAGAUCCUUGGUACGCUC,HDLBP,-0.477
UGCUCCACGAUUUCGAACC,KCNS2,0.1512
UGUAUGAAUAUCGUUUCCC,ADAMTS19,-0.06408
UGCCUUAAGAGAUAACACC,HIVEP1,0.1133
AGAAGAUGAAUCACGGUGG,CALML3,0.1706
UGUUUUCGAAUGAAUCUCU,SNRPEP2,-0.3577
UUAUAUAUGGGUUCAGAGC,KPRP,-0.6252
UGGGUUAUUGGGAUCGAUG,HOXA9,1.434
AGAGGAUUAAGUAAGGGAG,OR10T2,-0.09434
UACGAGAUGAUCUGACUCU,OR1N2,0.3386
UCAUUGACUCUGUGAAAGC,GLT1D1,-1.184
UCGGGCGUCAACACAUUGC,C2CD4C,-0.5564
AUUAGGUAAGGCUUAGUUG,DIRC1,0.9103
UGAACGAUCAGUAAUUCCC,TRIM4,0.2639
AUAGUACAUGAGGGAAUUC,DGCR14,-0.0555
UCUUCAACCAGUCAUCAUC,PPIE,-0.4224
UGUCCGAUACUUUUUCUCC,SUMF2,0.2975
UUAACCUUUCUAUAGCUUC,RAD23B,0.2078
AUAGGUGUUAAAGUAUGCC,KLHDC1,-0.7762
UGACUUACUAAGUUCUUCC,ZNF106,0.2364
UGCGUUCAAAUUGACCUCC,DDX21,0.4464
UGUUCACGAUGUCAGAUGG,LOC728715,-0.7218
AUUGAUCACAUCGUCGUUU,ACSM5,-1.1
UGCAGUUCUAUCAAUCCGG,UTP20,0.7289
UCAGGGUACAUGAAAUGGU,ST3GAL2,-0.2672

2 of the entries, repeated:

* AAUAUAUAAGGCAUGAUUC against NCOR1P2 | seed-corrected z-score 0.6893
* UGCUCCACGAUUUCGAACC against KCNS2 | seed-corrected z-score 0.1512